Results are given in words; binding and its absence hold for the method and conditions named. Some entries that bind do so weakly or less than the wild type.
Assays:
[1] = molecular target: pSos-AIPL1(R302L) (human) (UniProt Q9NZN9); experiment: two-hybrid; directed 1:1 CytoTrapXR two-hybrid in cdc25Hα yeast: pSos bait and pMyr prey co-transformed, serial dilutions grown at 24°C and 37°C
pSos-AIPL1(H82Y) (human) = pSos-AIPL1(H82Y) (human) (UniProt Q9NZN9); experiment: as above
[2] = molecular target: pSos-AIPL1(G262S) (human) (UniProt Q9NZN9); experiment: as above
[3] = molecular target: pSos-AIPL1 (full-length wild type human AIPL1) (human) (UniProt Q9NZN9); experiment: as above
[4] = molecular target: pSos-AIPL1 (full-length wild type human AIPL1) (human) (UniProt Q9NZN9); experiment: two-hybrid; CytoTrapXR screen of a bovine retinal cDNA library in pMyr (about 1 X 10^6 colonies) with pSos-AIPL1 as bait in S. cerevisiae cdc25Hα; growth at 37°C on gal(-L-U)

binding [1]: binds | binding (pSos-AIPL1(H82Y) (human)): binds | binding [2]: binds | binding [3]: binds | binding [4]: binds
B1: pMyr-EB1(109–268) (domain or fragment, UniProt Q3ZBD9 109-268)
chain: QWFKKFFDANYDGKEYDPVAARQGQETAMAPSLVAPALNKPKKPLSSSSAAPQRPITTHRTTATPKAGPGVVRKNPGVGNGDDEAAELMQQVNVLKLTVEDLEKERDFYFGKLRNIELICQENEGENNPVLQRIVDILYATDEGFVIPDEGGPQEEQEEY

— paper PMC4370678
